Results taken from US20100249383A1, “Novel Ligand Involved In The Transmigration Of Leukocytes Across the Endothelium and Uses Therefor” (The Regents of The University of California and The Burnham …, priority 2001, published 2010).

The chains behind the UniProt entries cited, without tags or fusion partners. Where a name states a change or a piece, a line headed by the entry shows the natural chain unless it says otherwise. Residues count along the entry.
UniProt Q28173: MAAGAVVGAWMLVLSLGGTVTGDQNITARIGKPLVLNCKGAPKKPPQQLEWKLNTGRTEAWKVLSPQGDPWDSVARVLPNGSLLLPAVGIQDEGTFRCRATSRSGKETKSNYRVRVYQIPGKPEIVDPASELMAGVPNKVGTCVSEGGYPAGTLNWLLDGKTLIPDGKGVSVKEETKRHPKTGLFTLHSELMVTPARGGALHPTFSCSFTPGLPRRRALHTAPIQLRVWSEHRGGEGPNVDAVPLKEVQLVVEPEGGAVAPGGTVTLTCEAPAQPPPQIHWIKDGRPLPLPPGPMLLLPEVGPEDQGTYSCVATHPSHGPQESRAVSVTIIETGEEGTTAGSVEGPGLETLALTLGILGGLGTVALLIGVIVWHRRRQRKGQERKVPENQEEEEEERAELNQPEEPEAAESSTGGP
UniProt P63159, residues 2-215: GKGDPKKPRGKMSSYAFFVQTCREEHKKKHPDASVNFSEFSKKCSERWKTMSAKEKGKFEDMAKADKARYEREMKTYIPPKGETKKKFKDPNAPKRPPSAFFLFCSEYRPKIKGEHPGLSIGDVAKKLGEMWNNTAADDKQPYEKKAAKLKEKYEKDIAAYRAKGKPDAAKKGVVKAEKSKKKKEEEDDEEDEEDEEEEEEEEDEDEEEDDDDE

Molecular target: RAGE from bovine lung (native, purified/immunoprecipitated) (bovine) (UniProt Q28173)
Assay: 125I amphoterin binding to immobilized RAGE (figure legend)

“amphoterin (baculovirus expressed rat amphoterin) (from UniProt P63159 2-215) (ligand)” was tested, and the binding was “binds”.

No constants are given. Whether binding was seen depends on the method and setting. A result given as binding can be weak or reduced; the word gives no strength.
